* marks the point of attachment. Cbz = O=C(OCc1ccccc1)*; Boc = CC(C)(C)OC(=O)*

The data set in a line: general procedure: solution-phase peptide synthesis; N-hydroxysuccinimide ester method; N,N'-dicyclohexylcarbodiimide with N-hydroxys. The conditions noted are these: coupling step.

On to “Cbz-K(Boc)PVGK(Boc)K(Boc)K(Boc)K(Boc)P-NH2”, for which the step yield was 90%.

As for Cbz-K(Boc)K(Boc)K(Boc)P-NH2, the step yield worked out at 96%.

(Values after patent US4018753A (Shionogi & Co., Ltd., priority 1974, dated 1977).)
